Our source for the binding values is PMC8564014.

These are yes or no findings as the source states them, for the method shown. Binding seen in cells or lysates may run through a third protein. Here binding means that the protein was enriched with, or labelled near, the bait; the list need not be complete. For part of these data: No binding means not detected with the bait. For part of these data: Tags and fused reporters may be left off the sequences shown.

T1: TRAF3-SBP-6xHis (in transduced human MM 8226 cells) (human), Q13114
T1 chain: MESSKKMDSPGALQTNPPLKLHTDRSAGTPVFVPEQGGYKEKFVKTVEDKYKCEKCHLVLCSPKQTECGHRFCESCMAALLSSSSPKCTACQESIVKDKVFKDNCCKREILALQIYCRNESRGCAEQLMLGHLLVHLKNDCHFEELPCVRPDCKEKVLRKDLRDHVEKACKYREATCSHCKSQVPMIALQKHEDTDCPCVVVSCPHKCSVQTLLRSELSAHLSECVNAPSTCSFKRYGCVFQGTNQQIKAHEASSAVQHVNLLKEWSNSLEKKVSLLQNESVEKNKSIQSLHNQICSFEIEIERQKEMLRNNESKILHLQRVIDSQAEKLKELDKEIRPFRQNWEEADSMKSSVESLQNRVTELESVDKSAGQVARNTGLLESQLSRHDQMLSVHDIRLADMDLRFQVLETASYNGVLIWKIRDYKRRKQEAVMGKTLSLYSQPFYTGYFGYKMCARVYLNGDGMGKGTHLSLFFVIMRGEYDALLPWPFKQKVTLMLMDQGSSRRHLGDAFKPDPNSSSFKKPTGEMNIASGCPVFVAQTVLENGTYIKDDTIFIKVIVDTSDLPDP

B1: SLC25A40 (protein, UniProt Q8TBP6 1-338)
chain: MDPETRGQEIIKVTPLQQMLASCTGAILTSVIVTPLDVVKIRLQAQNNPLPKGKCFVYSNGLMDHLCVCEEGGNKLWYKKPGNFQGTLDAFFKIIRNEGIKSLWSGLPPTLVMAVPATVIYFTCYDQLSALLRSKLGENETCIPIVAGIVARFGAVTVISPLELIRTKMQSKKFSYVELHRFVSKKVSEDGWISLWRGWAPTVLRDVPFSAMYWYNYEILKKWLCEKSGLYEPTFMINFTSGALSGSFAAVATLPFDVVKTQKQTQLWTYESHKISMPLHMSTWIIMKNIVAKNGFSGLFSGLIPRLIKIAPACAIMISTYEFGKAFFQKQNVRRQQY
B2: GUCY1B3 (protein, UniProt Q02153 1-619)
chain: MYGFVNHALELLVIRNYGPEVWEDIKKEAQLDEEGQFLVRIIYDDSKTYDLVAAASKVLNLNAGEILQMFGKMFFVFCQESGYDTILRVLGSNVREFLQNLDALHDHLATIYPGMRAPSFRCTDAEKGKGLILHYYSEREGLQDIVIGIIKTVAQQIHGTEIDMKVIQQRNEECDHTQFLIEEKESKEEDFYEDLDRFEENGTQESRISPYTFCKAFPFHIIFDRDLVVTQCGNAIYRVLPQLQPGNCSLLSVFSLVRPHIDISFHGILSHINTVFVLRSKEGLLDVEKLECEDELTGTEISCLRLKGQMIYLPEADSILFLCSPSVMNLDDLTRRGLYLSDIPLHDATRDLVLLGEQFREEYKLTQELEILTDRLQLTLRALEDEKKKTDTLLYSVLPPSVANELRHKRPVPAKRYDNVTILFSGIVGFNAFCSKHASGEGAMKIVNLLNDLYTRFDTLTDSRKNPFVYKVETVGDKYMTVSGLPEPCIHHARSICHLALDMMEIAGQVQVDGESVQITIGIHTGEVVTGVIGQRMPRYCLFGNTVNLTSRTETTGEKGKINVSEYTYRCLMSPENSDPQFHLEHRGPVSMKGKKEPMQVWFLSRKNTGTEETKQDDD
B3: HDHD3 (protein, UniProt Q9BSH5 1-251)
chain: MAHRLQIRLLTWDVKDTLLRLRHPLGEAYATKARAHGLEVEPSALEQGFRQAYRAQSHSFPNYGLSHGLTSRQWWLDVVLQTFHLAGVQDAQAVAPIAEQLYKDFSHPCTWQVLDGAEDTLRECRTRGLRLAVISNFDRRLEGILGGLGLREHFDFVLTSEAAGWPKPDPRIFQEALRLAHMEPVVAAHVGDNYLCDYQGPRAVGMHSFLVVGPQALDPVVRDSVPKEHILPSLAHLLPALDCLEGSTPGL
B4: CDS2 (protein, UniProt O95674 1-445)
chain: MTELRQRVAHEPVAPPEDKESESEAKVDGETASDSESRAESAPLPVSADDTPEVLNRALSNLSSRWKNWWVRGILTLAMIAFFFIIIYLGPMVLMIIVMCVQIKCFHEIITIGYNVYHSYDLPWFRTLSWYFLLCVNYFFYGETVTDYFFTLVQREEPLRILSKYHRFISFTLYLIGFCMFVLSLVKKHYRLQFYMFGWTHVTLLIVVTQSHLVIHNLFEGMIWFIVPISCVICNDIMAYMFGFFFGRTPLIKLSPKKTWEGFIGGFFATVVFGLLLSYVMSGYRCFVCPVEYNNDTNSFTVDCEPSDLFRLQEYNIPGVIQSVIGWKTVRMYPFQIHSIALSTFASLIGPFGGFFASGFKRAFKIKDFANTIPGHGGIMDRFDCQYLMATFVNVYIASFIRGPNPSKLIQQFLTLRPDQQLHIFNTLRSHLIDKGMLTSTTEDE
B5: PISD (protein, UniProt Q9UG56 53-409)
chain: IHTAPARTMFLLRPLPILLVTGGGYAGYRQYEKYRERELEKLGLEIPPKLAGHWEVALYKSVPTRLLSRAWGRLNQVELPHWLRRPVYSLYIWTFGVNMKEAAVEDLHHYRNLSEFFRRKLKPQARPVCGLHSVISPSDGRILNFGQVKNCEVEQVKGVTYSLESFLGPRMCTEDLPFPPAASCDSFKNQLVTREGNELYHCVIYLAPGDYHCFHSPTDWTVSHRRHFPGSLMSVNPGMARWIKELFCHNERVVLTGDWKHGFFSLTAVGATNVGSIRIYFDRDLHTNSPRHSKGSYNDFSFVTHTNREGVPMRKGEHLGEFNLGSTIVLIFEAPKDFNFQLKTGQKIRFGEALGSL
B6: MAVS, Q7Z434 1-540 (protein)
chain: MPFAEDKTYKYICRNFSNFCNVDVVEILPYLPCLTARDQDRLRATCTLSGNRDTLWHLFNTLQRRPGWVEYFIAALRGCELVDLADEVASVYQSYQPRTSDRPPDPLEPPSLPAERPGPPTPAAAHSIPYNSCREKEPSYPMPVQETQAPESPGENSEQALQTLSPRAIPRNPDGGPLESSSDLAALSPLTSSGHQEQDTELGSTHTAGATSSLTPSRGPVSPSVSFQPLARSTPRASRLPGPTGSVVSTGTSFSSSSPGLASAGAAEGKQGAESDQAEPIICSSGAEAPANSLPSKVPTTLMPVNTVALKVPANPASVSTVPSKLPTSSKPPGAVPSNALTNPAPSKLPINSTRAGMVPSKVPTSMVLTKVSASTVPTDGSSRNEETPAAPTPAGATGGSSAWLDSSSENRGLGSELSKPGVLASQVDSPFSGCFEDLAISASTSLGMGPCHGPEENEYKSEGTFGIHVAENPSIQLLEGNPGPPADPDGGPRPQADRKFQEREVPCHRPSPGALWLQVAVTGVLVVTLLVVLYRRRLH

The target of one assay is TRAF3-SBP-6xHis (in transduced human MM 8226 cells) (human) (UniProt Q13114). As to the kind of experiment: affinity purification with mass spectrometry; mitochondria isolated from 8226 cells transduced with pUB-TRAF3-SBP-6xHis, lysed in 1% CHAPS lysis buffer; TRAF3-SBP-6xHis captured on Streptavidin-Sepharose beads, 5 washes; LC-MS/MS of gel slices; cells transduced with FLAG-TRAF3 as negative control.
Conditions: not given
In the case of B1, the binding entry is “binds”. Still for that read-out and setting: then B2, with “binds”. In the case of B3, the binding result is recorded as “binds”.

As for B4, the binding result is “binds”.

Regarding B5, the binding result is “binds”.

The target of the next assay is T1, TRAF3-SBP-6xHis (in transduced human MM …). The assay is described as above. The conditions noted are these: remark: other sources report otherwise.
Regarding B6, the binding result is recorded as “no binding”.
